Laboratory results: patent publication US20030229132A1, “Small molecule modulators of apoptosis” (priority 2002, published 2003)
Some of these results come from one statement about several compounds together. For at least one compound, name, drawing or mass did not settle the structure.

Test system: procaspase-3 processing
Assay: Procaspase-3 processing by capture ELISA in HeLa cell extract (cyto c / compound titration)
Assay type: biochemical
Settings: 20 μM compound, vs cyto c alone (~1.75 μM)
Procedure: FIG. 2 depicts activity of compounds 1-5 in cell lysates. (A) Compound activation is cyto c dependent. Cyto c was titrated into S-100 cytoplasmic extracts with vehicle alone or 20 μM compound and procaspase-3 processing was assayed by capture ELISA. (B) Compound activation is dose-dependent. Compounds or vehicle were titrated into S-100 cytoplasmic extracts at a cyto c concentration of 1.25 μM and procaspases-3 processing was assayed by capture ELISA. (C) Immunoblot assay of compound-induced caspase activation. Samples at the 20 μM compound concentration in (B) were separated on SDS-polyacrylamide gel and transferred to polyvinyl membrane. […]
In order to determine if these compounds required cyto c for caspase-3 activation, cyto c was titrated into HeLa cell extract in the presence and absence of compounds and procaspase-3 processing was monitored by capture ELISA (Cyto c was titrated into lysates as detailed in the screening procedure. Capture ELISA assay for active caspase-3 was adapted from Aragones et al., www.biocarta.com. Briefly, a mouse monoclonal antibody recognizing both full-length and cleaved caspase-3 (capture antibody, Transduction Laboratories) was immobilized onto an immunosorp plate and blocked with 5% milk, and 25 μL of the caspase activation reaction in 75 μL Superblock (Pierce) was added. […]

O=C1C(=O)N(Cc2ccc(Cl)c(Cl)c2)c2ccccc21 [Compound 2]
reduction of the cyto c AC50: greater than 2 fold

O=C(NCc1ccc(Cl)c(Cl)c1)OC1CCc2ccccc21 (centres unmarked) [Compound 5]
reduction of the cyto c AC50: greater than 2 fold
